Reference: patent US20220249404A1, “COMPOSITION CONTAINING FLUOXETINE AND VITAMIN D3 OR ITS DERIVATIVES, AND APPLICATION THEREOF” (Nanjing Ruiying Runze Biopharmaceutical Technology Co., Inc., priority 2019, published 2022)

Test system: zebrafish
Assay: survival rate of zebrafish (PTU35h embryos, drugs alone or in combination)
Conditions: Danio rerio, 25 h, read-out: IC50 (survival rate of zebrafish)

CNCCC(Oc1ccc(C(F)(F)F)cc1)c1ccccc1 (racemic) [fluoxetine]
IC50: 89.7 µg/mL
